Results are given in words; binding and its absence hold for the method and conditions named. In cells and extracts the contact can be indirect. A yes stands for co-enrichment or nearness to the bait. Other partners may have been found. Tags and fused reporters may be left off the sequences shown.
Biological target: T1, B14-3xFLAG (human) (UniProt Q8TBM8)
T1 sequence: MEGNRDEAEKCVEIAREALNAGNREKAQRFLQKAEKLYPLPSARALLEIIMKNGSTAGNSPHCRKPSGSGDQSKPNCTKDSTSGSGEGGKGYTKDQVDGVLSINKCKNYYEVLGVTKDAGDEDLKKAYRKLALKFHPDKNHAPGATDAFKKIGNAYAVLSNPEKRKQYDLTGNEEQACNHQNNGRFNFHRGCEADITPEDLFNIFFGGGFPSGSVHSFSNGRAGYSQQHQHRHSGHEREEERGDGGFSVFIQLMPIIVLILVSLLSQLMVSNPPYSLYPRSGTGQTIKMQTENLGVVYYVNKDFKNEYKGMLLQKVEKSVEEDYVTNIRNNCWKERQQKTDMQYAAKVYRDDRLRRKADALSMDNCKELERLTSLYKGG
Assay: affinity purification with mass spectrometry; B14-3xFLAG at near endogenous level in Flp-In T-REx 293 cells; 0.1% digitonin lysate; anti-FLAG M2 agarose, 3xFLAG peptide elution, silver-stained bands excised for MS; control beads pre-blocked with 3xFLAG peptide

By UniProt entry, the sequences of proteins in these tests, tags left out.
UniProt P11142: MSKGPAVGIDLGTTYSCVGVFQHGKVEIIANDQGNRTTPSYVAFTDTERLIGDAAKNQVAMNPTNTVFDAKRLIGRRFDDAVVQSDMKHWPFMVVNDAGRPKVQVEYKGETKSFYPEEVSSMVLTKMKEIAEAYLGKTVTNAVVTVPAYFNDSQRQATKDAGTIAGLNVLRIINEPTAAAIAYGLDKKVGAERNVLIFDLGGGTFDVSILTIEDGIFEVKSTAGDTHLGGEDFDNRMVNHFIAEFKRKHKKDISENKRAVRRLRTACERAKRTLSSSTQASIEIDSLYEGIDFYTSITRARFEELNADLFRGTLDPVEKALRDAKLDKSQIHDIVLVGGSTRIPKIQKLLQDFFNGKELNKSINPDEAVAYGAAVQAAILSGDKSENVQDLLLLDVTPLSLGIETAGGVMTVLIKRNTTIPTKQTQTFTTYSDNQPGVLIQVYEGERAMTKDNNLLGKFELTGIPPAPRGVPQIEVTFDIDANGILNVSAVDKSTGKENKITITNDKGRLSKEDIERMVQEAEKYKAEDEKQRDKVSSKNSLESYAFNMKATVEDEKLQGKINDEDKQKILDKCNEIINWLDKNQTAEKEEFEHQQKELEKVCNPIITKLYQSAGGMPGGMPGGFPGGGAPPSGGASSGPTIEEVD

For Hsc70 (from UniProt P11142 1-646), the binding was “binds”.

Source: publication PMC3968126
